Experimental data published in the supplement of paper PMC10849652.
This is one part of the list.

Amino acid sequences for entries named in this document (tags omitted). A change or cut given only in a name is not applied to a line headed by its entry.
UniProt Q9Y4Z0: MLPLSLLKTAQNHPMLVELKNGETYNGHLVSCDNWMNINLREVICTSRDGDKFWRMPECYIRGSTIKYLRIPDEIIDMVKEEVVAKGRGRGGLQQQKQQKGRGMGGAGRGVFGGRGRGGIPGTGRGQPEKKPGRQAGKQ
UniProt P02788: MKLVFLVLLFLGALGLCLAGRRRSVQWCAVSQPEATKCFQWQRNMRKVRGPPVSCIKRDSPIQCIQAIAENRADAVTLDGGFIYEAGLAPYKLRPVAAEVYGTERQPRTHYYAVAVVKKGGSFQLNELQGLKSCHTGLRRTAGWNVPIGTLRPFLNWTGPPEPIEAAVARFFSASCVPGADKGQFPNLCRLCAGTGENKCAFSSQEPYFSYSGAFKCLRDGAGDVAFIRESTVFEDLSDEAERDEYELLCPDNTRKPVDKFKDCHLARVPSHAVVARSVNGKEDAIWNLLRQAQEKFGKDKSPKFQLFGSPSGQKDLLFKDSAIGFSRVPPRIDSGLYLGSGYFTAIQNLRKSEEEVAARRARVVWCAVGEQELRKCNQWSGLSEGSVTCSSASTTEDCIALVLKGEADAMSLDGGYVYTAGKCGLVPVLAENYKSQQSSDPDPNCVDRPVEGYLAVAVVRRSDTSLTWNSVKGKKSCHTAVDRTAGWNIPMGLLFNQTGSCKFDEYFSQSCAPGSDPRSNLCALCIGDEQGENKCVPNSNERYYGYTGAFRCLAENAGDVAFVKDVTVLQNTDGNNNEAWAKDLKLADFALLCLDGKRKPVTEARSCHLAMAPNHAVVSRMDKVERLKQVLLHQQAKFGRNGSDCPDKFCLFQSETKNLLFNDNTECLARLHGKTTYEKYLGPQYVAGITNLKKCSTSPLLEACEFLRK
UniProt Q3MHD2: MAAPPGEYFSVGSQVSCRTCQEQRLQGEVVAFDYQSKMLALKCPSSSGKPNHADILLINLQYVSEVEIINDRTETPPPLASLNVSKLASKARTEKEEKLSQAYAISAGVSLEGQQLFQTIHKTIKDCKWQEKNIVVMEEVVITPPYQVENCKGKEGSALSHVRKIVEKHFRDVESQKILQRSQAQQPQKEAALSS
UniProt Q5VWZ2: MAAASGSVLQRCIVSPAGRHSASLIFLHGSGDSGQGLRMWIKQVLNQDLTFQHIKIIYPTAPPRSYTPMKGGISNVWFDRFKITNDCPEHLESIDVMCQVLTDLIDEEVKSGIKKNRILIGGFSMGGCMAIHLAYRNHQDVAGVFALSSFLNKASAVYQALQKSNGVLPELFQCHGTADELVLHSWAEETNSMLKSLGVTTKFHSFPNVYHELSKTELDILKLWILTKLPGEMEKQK
UniProt P62312: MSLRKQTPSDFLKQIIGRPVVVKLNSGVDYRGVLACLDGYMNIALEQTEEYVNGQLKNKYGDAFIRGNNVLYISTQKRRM
UniProt Q15691: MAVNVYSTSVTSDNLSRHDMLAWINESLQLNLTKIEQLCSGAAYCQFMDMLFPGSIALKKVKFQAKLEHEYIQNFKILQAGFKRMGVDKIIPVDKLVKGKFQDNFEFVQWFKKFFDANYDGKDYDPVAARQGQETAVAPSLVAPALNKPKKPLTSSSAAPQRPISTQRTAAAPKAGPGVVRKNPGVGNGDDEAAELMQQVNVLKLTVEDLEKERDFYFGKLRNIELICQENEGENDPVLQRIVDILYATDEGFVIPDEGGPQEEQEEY
UniProt Q96S90: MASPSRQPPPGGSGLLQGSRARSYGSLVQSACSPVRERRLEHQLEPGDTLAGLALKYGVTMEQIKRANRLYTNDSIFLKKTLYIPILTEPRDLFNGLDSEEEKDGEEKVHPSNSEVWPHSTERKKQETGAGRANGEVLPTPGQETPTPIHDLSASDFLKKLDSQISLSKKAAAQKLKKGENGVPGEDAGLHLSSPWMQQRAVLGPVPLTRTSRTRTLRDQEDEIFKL
UniProt Q9Y608: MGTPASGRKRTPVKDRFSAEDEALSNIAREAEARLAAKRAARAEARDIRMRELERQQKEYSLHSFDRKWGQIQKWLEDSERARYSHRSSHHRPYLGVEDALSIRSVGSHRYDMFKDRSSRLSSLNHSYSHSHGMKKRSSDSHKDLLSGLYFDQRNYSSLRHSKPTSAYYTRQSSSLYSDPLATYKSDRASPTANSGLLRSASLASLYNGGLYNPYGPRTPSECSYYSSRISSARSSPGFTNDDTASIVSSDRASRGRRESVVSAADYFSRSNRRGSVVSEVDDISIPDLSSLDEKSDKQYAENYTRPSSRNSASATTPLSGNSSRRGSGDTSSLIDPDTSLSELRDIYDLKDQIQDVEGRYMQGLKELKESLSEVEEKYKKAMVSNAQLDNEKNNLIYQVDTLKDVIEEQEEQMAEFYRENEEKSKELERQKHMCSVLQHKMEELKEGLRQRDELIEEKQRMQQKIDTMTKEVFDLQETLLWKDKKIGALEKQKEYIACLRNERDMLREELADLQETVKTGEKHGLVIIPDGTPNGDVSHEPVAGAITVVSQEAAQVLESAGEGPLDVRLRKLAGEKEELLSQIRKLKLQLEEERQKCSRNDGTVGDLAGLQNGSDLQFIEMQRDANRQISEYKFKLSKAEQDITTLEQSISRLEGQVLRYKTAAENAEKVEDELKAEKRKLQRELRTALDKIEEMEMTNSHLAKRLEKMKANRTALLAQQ
UniProt P49641: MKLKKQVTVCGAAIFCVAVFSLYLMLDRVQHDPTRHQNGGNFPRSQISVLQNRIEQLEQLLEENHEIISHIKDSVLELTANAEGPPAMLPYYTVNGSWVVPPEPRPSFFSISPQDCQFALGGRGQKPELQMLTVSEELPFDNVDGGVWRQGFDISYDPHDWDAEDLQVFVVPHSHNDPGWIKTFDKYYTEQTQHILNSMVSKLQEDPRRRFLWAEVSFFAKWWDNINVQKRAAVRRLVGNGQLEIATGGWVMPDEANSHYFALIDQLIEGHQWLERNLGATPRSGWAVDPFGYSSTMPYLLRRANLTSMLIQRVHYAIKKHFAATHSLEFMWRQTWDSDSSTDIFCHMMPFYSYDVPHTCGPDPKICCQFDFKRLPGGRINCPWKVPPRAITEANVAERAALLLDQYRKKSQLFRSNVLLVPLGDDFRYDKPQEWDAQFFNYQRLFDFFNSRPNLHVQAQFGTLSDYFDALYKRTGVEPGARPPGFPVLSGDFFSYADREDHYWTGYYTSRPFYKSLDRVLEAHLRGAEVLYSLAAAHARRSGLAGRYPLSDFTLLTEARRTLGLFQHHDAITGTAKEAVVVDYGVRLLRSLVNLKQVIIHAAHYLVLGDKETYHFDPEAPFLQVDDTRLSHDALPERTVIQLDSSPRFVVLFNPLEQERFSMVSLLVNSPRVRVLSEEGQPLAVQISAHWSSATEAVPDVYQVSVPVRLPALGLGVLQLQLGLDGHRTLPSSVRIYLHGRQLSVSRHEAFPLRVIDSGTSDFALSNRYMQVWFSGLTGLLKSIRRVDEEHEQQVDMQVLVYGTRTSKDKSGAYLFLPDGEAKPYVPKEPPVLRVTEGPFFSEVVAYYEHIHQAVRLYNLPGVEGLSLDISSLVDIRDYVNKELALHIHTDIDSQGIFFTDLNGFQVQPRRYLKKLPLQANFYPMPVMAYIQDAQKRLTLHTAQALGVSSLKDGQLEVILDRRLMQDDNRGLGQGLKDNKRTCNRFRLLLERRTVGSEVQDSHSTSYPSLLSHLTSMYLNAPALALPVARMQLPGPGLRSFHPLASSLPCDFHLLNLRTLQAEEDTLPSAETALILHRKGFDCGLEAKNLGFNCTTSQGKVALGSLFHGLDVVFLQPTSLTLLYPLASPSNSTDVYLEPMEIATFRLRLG
UniProt O75608: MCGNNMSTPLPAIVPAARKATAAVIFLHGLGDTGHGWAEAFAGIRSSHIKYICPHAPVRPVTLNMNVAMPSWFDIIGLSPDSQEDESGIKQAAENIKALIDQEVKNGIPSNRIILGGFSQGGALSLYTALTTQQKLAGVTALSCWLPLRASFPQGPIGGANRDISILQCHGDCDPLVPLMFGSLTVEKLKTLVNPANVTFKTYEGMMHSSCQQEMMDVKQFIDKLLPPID
UniProt Q8WZA0: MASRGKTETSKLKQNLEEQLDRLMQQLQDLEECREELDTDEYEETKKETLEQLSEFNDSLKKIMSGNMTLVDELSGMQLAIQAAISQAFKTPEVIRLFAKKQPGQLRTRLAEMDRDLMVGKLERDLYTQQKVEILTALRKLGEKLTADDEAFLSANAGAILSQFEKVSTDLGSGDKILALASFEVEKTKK
UniProt Q8N2S1: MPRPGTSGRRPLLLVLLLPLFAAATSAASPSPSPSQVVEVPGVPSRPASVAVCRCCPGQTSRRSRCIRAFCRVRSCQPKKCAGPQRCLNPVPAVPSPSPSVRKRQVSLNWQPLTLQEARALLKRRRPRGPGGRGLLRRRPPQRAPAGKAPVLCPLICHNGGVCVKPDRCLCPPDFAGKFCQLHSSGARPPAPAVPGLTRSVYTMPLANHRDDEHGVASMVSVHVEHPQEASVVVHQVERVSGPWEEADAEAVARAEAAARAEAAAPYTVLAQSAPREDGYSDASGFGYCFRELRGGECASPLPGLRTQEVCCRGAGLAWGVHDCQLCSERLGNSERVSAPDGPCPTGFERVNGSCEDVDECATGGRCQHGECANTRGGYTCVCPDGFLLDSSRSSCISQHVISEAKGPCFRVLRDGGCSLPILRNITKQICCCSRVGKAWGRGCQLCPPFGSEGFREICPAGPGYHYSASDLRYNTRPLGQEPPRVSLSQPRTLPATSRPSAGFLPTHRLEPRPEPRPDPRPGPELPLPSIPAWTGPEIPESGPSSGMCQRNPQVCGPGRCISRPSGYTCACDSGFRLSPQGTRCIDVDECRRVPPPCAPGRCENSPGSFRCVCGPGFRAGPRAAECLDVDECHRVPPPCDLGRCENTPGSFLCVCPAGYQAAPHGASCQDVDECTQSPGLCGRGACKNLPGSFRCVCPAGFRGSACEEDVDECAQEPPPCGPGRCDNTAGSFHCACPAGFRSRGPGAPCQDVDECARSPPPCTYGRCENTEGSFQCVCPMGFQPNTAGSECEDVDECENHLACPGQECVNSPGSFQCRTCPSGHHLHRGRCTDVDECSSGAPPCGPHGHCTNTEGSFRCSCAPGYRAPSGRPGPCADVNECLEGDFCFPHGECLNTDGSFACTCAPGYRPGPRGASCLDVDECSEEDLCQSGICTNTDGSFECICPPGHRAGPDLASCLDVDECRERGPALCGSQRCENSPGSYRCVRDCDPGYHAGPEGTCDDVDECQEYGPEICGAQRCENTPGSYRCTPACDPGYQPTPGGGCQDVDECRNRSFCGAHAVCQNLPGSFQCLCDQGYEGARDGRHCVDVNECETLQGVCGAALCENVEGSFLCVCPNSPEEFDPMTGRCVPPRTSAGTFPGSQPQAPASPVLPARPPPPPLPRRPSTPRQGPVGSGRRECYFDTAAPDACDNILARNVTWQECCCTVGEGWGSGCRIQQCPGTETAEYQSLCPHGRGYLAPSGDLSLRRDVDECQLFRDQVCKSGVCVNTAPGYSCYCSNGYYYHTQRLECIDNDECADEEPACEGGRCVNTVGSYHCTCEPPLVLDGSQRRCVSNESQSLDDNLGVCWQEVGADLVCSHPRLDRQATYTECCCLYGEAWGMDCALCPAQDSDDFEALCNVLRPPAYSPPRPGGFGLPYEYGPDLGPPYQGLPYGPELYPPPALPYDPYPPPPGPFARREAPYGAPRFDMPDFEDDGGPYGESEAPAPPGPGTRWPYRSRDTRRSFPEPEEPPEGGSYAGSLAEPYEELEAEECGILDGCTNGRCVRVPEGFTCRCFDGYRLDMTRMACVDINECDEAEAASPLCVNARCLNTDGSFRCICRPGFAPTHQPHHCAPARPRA

Experiments:
Test in all cases: log2 fold change, soluble protein after heating vs DMSO (PISA); higher = thermal stabilisation; K562 cells, 10 uM, 30 min; active = over 0.2 and 3.5 SD of the protein, either way, in both replicates (recomputed)
[1] = compound: COC1=CC=C(C=C1)CN2C=CC3=C2C=C(C=C3)C(=O)NO
Outline: (§1)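 Soluble protein was defined as the supernatant after 21,000xg for 90 min. It came from K562 cells at 2×10^6 cells/mL given 10 μM compound for 30 min, heated in aliquots for 3 min across 48°C-58°C, pooled, and extracted in PBS with 0.5% NP-40 at 4°C, and was quantified by TMTpro 16plex LC-MS/MS with equalised channel sums. Thermal stability against control samples, from duplicates, is reported as log2 fold change.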

[2] = compound: CON(C)C(=O)N1N=C(c2cc(F)ccc2F)S[C@@]1(CCCN)c1ccccc1 [filanesib]
Outline: as §1

[3] = compound: CO[C@H]1C[C@@H]2CC[C@@H](C)[C@@](O)(O2)C(=O)C(=O)N2CCCC[C@H]2C(=O)O[C@H]([C@H](C)C[C@@H]2CC[C@H](n3cnnn3)[C@H](OC)C2)CC(=O)[C@H](C)/C=C(\C)[C@@H](O)[C@@H](OC)C(=O)[C@H](C)C[C@H](C)/C=C/C=C/C=C/1C [zotarolimus]
Outline: as §1

[4] = compound: COc1cc(C(=O)O)ccc1NC(=O)[C@@H]1N[C@@H](CC(C)(C)C)[C@](C#N)(c2ccc(Cl)cc2F)[C@H]1c1cccc(Cl)c1F [idasanutlin]
Outline: as §1

[5] = compound: COc1cc(Nc2ncc3c(n2)-c2ccc(Cl)cc2C(c2c(F)cccc2OC)=NC3)ccc1C(=O)O [alisertib]
Outline: as §1

[6] = compound: COc1cc2nc(-c3cc(F)ccc3O)nc(N[C@@H]3CNC[C@H]3C(C)(C)O)c2cc1OC
Outline: as §1

[7] = compound: COc1cc2ncnc(Nc3ccc(F)c(Cl)c3)c2cc1OCCCN1CCOCC1 [gefitinib]
Outline: as §1

[8] = compound: COc1cccc2cc(-c3nc([C@H]4CC[C@H](C(=O)O)CC4)n4ncnc(N)c34)[nH]c12
Outline: as §1

[9] = compound: CS(=O)(=O)CCNCc1ccc(-c2ccc3ncnc(Nc4ccc(OCc5cccc(F)c5)c(Cl)c4)c3c2)o1 [lapatinib]
Outline: as §1

[10] = compound: CS(=O)(=O)N1CCN(Cc2cc3nc(-c4cccc5[nH]ncc45)nc(N4CCOCC4)c3s2)CC1 [pictilisib]
Outline: as §1

[11] = compound: CS(=O)(=O)c1ccc(-c2cnc(N)c(C(=O)Nc3ccccc3)n2)cc1
Outline: as §1

[12] = compound: C[C@@H](Oc1cc(-c2cnn(C3CCNCC3)c2)cnc1N)c1c(Cl)ccc(F)c1Cl [crizotinib]
Outline: as §1

[13] = compound: C[C@@H]1COCCN1C2=NC(=NC(=C2)C3(CC3)S(=O)(=O)C)C4=C5C=CNC5=CC=C4
Outline: as §1

[14] = compound: C[C@H](C1=CC=C(C=C1)C(=O)NC2=C3C=CNC3=NC=C2)N
Outline: as §1

[15] = compound: C[C@H](Nc1ncnc2nc[nH]c12)c1cc2cccc(Cl)c2c(=O)n1-c1ccccc1 [duvelisib]
Outline: as §1

[16] = compound: Cc1cc(Nc2cc(CN3CCOCC3)c3nc(C)c(Cc4ccc(Cl)cc4F)n3n2)n[nH]1 [gandotinib]
Outline: as §1

[17] = compound: Cc1cc(Nc2cc(N3CCN(C)CC3)nc(Sc3ccc(NC(=O)C4CC4)cc3)n2)n[nH]1 [tozasertib]
Outline: as §1

[18] = compound: Cc1cc(SCc2sc(-c3ccc(C(F)(F)F)cc3)nc2C)ccc1OCC(=O)O
Outline: as §1

[19] = compound: Cc1ccc(-n2nc(C(C)(C)C)cc2NC(=O)Nc2ccc(OCCN3CCOCC3)c3ccccc23)cc1 [doramapimod]
Outline: as §1

[20] = compound: Cc1ccc(C(=O)N(CCCN)[C@@H](c2nc3cc(Cl)ccc3c(=O)n2Cc2ccccc2)C(C)C)cc1 [ispinesib]
Outline: as §1

Measured: log2 fold change

LSM4 (UniProt Q9Y4Z0)
inactive: [1] 0.051 | [2] -0.013 | [3] -0.021 | [4] 0.026 | [5] -0.121 | [6] -0.054 | [7] -0.002 | [8] 0.035 | [9] 0.022 | [10] -0.015 | [11] -0.019 | [12] 0.041 | [13] -0.022 | [14] -0.032 | [15] 0.02 | [16] -0.015 | [17] -0.024 | [18] -0.014 | [19] 0.01 | [20] 0.026

LYAR (UniProt Q9NX58)
inactive: [1] -0.123 | [2] 0.861 | [3] 0.136 | [4] 0.367 | [5] -0.122 | [6] 0.121 | [7] -0.051 | [8] -0.13 | [9] 0.21 | [10] 0.016 | [11] -0.043 | [12] 0.045 | [13] -0.551 | [14] 0.609 | [15] -0.155 | [16] 0.372 | [17] 0.078 | [18] 0.045 | [19] 0.3 | [20] 0.357

LTF (UniProt P02788)
inactive: [1] -0.135 | [2] 0.288 | [3] -0.119 | [4] 0.142 | [5] -0.052 | [6] -0.118 | [7] -0.032 | [8] 0.181 | [9] 0.036 | [10] 0.248 | [11] -0.123 | [12] 0.089 | [13] -0.068 | [14] 0.19 | [15] -0.27 | [16] -0.039 | [17] -0.065 | [18] -0.11 | [19] 0.169 | [20] 0.146

LSM12 isoform 2 (UniProt Q3MHD2)
inactive: [1] -0.03 | [2] -0.055 | [3] 0.028 | [4] 0.064 | [5] -0.053 | [6] -0.035 | [7] -0.017 | [8] 0.004 | [9] 0.063 | [10] -0.14 | [11] -0.008 | [12] 0.003 | [13] -0.154 | [14] -0.03 | [15] -0.035 | [16] -0.08 | [17] 0.073 | [18] -0.051 | [19] 0.06 | [20] 0.087

LYPLAL1 (UniProt Q5VWZ2)
inactive: [1] 0.032 | [2] -0.064 | [3] 0.035 | [4] -0.082 | [5] 0.021 | [6] 0.018 | [7] -0.029 | [8] 0.02 | [9] 0.002 | [10] 0.081 | [11] 0.025 | [12] -0.015 | [13] 0.083 | [14] -0.037 | [15] 0.017 | [16] -0.078 | [17] 0.031 | [18] 0.019 | [19] -0.034 | [20] 0.044

LSM6 (UniProt P62312)
inactive: [1] -0.008 | [2] 0.012 | [3] 0.053 | [4] -0.039 | [5] -0.097 | [6] -0.07 | [7] -0.008 | [8] 0.046 | [9] 0.042 | [10] -0.267 | [11] 0.089 | [12] 0.059 | [13] 0.016 | [14] -0.202 | [15] -0.042 | [16] 0 | [17] 0.024 | [18] -0.05 | [19] -0.024 | [20] 0.099

MAPRE1 (UniProt Q15691)
inactive: [1] 0.007 | [2] -0.039 | [3] 0.031 | [4] -0.072 | [5] -0.021 | [6] 0.015 | [7] 0.003 | [8] -0.033 | [9] 0 | [10] 0.013 | [11] 0.013 | [12] 0.021 | [13] 0.055 | [14] -0.055 | [15] 0.008 | [16] -0.12 | [17] 0.007 | [18] 0.024 | [19] -0.011 | [20] 0.021

LYSMD1 (UniProt Q96S90)
inactive: [1] 0.044 | [2] -0.058 | [3] 0.053 | [4] -0.007 | [5] -0.004 | [6] -0.026 | [7] 0 | [8] -0.012 | [9] 0.071 | [10] 0.032 | [11] -0.059 | [12] -0.008 | [13] 0.002 | [14] -0.021 | [15] 0.035 | [16] -0.155 | [17] -0.005 | [18] -0.021 | [19] 0.012 | [20] 0.006

MAN1A1 (UniProt P33908)
inactive: [1] 0.015 | [2] 0.012 | [3] -0.015 | [4] -0.051 | [5] -0.146 | [6] -0.032 | [7] 0.071 | [8] 0.062 | [9] 0.011 | [10] 0.016 | [11] 0.013 | [12] 0.089 | [13] 0.038 | [14] -0.077 | [15] 0.018 | [16] -0.009 | [17] 0.017 | [18] -0.06 | [19] 0 | [20] 0.099

2 records drawn at random from the list so far:
LYPLAL1 (UniProt Q5VWZ2)
inactive: [1] 0.032 | [2] -0.064 | [3] 0.035 | [4] -0.082 | [5] 0.021 | [6] 0.018 | [7] -0.029 | [8] 0.02 | [9] 0.002 | [10] 0.081 | [11] 0.025 | [12] -0.015 | [13] 0.083 | [14] -0.037 | [15] 0.017 | [16] -0.078 | [17] 0.031 | [18] 0.019 | [19] -0.034 | [20] 0.044

MAPRE1 (UniProt Q15691)
inactive: [1] 0.007 | [2] -0.039 | [3] 0.031 | [4] -0.072 | [5] -0.021 | [6] 0.015 | [7] 0.003 | [8] -0.033 | [9] 0 | [10] 0.013 | [11] 0.013 | [12] 0.021 | [13] 0.055 | [14] -0.055 | [15] 0.008 | [16] -0.12 | [17] 0.007 | [18] 0.024 | [19] -0.011 | [20] 0.021

Additional records

LRRFIP2 (UniProt Q9Y608)
inactive: [1] 0.008 | [2] -0.009 | [3] -0.039 | [4] -0.013 | [5] -0.1 | [6] -0.004 | [7] 0.089 | [8] 0.026 | [9] 0.003 | [10] 0.094 | [11] 0.009 | [12] 0.052 | [13] 0.036 | [14] -0.009 | [15] 0.055 | [16] 0.159 | [17] -0.042 | [18] -0.06 | [19] -0.007 | [20] 0.081

MAN2A2 (UniProt P49641)
inactive: [1] -0.043 | [2] 0.044 | [3] -0.042 | [4] -0.01 | [5] -0.141 | [6] 0.108 | [7] 0.083 | [8] -0.004 | [9] 0.042 | [10] 0.089 | [11] 0.015 | [12] 0.055 | [13] -0.038 | [14] 0.086 | [15] -0.026 | [16] 0.004 | [17] -0.008 | [18] 0.045 | [19] 0.028 | [20] 0.054

LYPLA1 (UniProt O75608)
inactive: [1] -0.029 | [2] -0.034 | [3] 0.024 | [4] -0.031 | [5] -0.031 | [6] -0.031 | [7] -0.006 | [8] 0.02 | [9] -0.059 | [10] 0.017 | [11] -0.015 | [12] 0.084 | [13] 0.265 | [14] -0.129 | [15] 0.124 | [16] -0.023 | [17] 0.028 | [18] -0.029 | [19] 0.023 | [20] 0.104

LZIC isoform 2 (UniProt Q8WZA0)
inactive: [1] 0.005 | [2] -0.016 | [3] -0.024 | [4] -0.048 | [5] -0.089 | [6] 0.058 | [7] -0.018 | [8] 0.018 | [9] -0.021 | [10] 0.029 | [11] 0.045 | [12] 0.011 | [13] 0.041 | [14] -0.034 | [15] 0.037 | [16] 0.018 | [17] -0.021 | [18] -0.04 | [19] -0.004 | [20] -0.046

MANBA (UniProt O00462)
inactive: [1] -0.082 | [2] -0.014 | [3] -0.026 | [4] 0.026 | [5] -0.037 | [6] -0.045 | [7] 0.028 | [8] 0.035 | [9] 0.126 | [10] -0.041 | [11] 0.005 | [12] -0.05 | [13] 0.07 | [14] -0.019 | [15] 0.02 | [16] 0.101 | [17] 0 | [18] -0.002 | [19] 0.052 | [20] -0.057

LTBP4 (UniProt Q8N2S1)
inactive: [1] 0.099 | [2] 0.027 | [3] -0.002 | [4] 0.161 | [5] -0.07 | [6] 0.003 | [7] 0.145 | [8] 0.114 | [9] 0.055 | [10] 0.054 | [11] 0 | [12] 0.126 | [13] 0.107 | [14] 0.058 | [15] 0 | [16] -0.068 | [17] 0.052 | [18] -0.153 | [19] -0.04
